Results on 36 targets are retold here after the supplement of paper PMC12819154, “High-throughput peptide-centric local stability assay extends protein–ligand identification to membrane proteins, tissues and bacteria” (Nature Structural & Molecular Biology, 2025).

The chains behind the UniProt entries cited, without tags or fusion partners. Where a name states a change or a piece, a line headed by the entry shows the natural chain unless it says otherwise.
UniProt Q8C181: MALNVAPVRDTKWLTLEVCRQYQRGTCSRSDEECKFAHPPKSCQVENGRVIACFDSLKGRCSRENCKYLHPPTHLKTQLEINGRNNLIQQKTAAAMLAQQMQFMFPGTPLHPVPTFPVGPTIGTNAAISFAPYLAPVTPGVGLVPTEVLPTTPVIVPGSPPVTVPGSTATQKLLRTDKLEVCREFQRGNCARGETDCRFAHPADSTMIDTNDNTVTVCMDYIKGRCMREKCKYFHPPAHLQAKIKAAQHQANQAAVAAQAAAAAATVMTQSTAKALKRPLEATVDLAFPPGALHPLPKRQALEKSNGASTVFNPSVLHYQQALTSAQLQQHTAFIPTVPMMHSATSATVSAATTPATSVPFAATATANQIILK
UniProt Q8C0Y0: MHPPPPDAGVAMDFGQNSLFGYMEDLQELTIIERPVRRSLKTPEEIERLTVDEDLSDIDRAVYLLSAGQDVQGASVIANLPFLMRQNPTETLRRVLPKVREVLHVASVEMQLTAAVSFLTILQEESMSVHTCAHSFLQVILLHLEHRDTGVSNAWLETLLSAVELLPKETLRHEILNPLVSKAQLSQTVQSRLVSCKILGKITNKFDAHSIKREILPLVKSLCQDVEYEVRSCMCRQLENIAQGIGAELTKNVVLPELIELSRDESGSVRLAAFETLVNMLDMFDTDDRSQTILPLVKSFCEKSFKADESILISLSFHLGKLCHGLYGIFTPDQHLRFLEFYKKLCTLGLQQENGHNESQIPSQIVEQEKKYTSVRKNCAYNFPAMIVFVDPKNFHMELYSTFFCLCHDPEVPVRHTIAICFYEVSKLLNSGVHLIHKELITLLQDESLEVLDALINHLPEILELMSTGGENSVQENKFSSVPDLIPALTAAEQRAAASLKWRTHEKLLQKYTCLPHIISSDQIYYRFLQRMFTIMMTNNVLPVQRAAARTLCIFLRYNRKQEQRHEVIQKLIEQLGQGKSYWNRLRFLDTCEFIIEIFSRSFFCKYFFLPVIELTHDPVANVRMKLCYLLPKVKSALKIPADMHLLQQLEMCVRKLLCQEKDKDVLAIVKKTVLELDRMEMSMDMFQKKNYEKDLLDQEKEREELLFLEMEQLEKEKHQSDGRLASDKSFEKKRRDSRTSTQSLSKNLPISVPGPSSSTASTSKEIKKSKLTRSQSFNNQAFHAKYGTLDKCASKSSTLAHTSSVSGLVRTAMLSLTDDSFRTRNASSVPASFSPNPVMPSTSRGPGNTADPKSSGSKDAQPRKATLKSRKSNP
UniProt Q8BNI4: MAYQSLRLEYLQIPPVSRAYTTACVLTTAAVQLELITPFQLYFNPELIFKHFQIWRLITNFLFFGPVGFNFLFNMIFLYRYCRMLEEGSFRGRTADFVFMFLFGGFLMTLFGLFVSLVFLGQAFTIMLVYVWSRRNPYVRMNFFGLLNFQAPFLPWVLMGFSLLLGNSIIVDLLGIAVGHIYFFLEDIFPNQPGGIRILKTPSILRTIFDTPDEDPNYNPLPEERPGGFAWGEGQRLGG
UniProt Q8C0J2: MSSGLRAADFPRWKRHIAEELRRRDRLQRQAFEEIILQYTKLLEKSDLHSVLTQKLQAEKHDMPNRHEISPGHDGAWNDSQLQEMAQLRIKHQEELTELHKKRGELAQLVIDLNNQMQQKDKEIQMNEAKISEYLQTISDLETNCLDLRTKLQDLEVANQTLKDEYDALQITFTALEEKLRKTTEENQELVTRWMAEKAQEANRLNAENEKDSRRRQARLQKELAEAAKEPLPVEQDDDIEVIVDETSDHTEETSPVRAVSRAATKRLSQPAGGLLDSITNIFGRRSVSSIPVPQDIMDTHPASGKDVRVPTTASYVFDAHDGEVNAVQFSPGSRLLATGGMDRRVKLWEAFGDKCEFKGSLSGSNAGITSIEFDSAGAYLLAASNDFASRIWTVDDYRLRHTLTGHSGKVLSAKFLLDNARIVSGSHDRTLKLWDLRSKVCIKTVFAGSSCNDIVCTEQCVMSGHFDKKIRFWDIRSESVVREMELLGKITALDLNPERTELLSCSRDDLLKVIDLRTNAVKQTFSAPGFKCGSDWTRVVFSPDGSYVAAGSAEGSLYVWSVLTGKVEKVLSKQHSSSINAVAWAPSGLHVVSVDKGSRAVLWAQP
UniProt Q8CES0: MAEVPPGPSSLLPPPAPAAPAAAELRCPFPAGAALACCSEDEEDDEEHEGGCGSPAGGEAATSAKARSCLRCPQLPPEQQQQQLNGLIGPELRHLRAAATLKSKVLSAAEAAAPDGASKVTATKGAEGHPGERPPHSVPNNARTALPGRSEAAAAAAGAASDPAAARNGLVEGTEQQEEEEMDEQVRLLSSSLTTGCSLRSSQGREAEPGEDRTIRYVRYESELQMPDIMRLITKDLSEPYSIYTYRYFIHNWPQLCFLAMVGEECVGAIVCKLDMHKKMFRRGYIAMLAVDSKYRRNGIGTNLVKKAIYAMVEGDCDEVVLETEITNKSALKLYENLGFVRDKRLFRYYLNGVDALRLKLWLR
UniProt Q8C9S4: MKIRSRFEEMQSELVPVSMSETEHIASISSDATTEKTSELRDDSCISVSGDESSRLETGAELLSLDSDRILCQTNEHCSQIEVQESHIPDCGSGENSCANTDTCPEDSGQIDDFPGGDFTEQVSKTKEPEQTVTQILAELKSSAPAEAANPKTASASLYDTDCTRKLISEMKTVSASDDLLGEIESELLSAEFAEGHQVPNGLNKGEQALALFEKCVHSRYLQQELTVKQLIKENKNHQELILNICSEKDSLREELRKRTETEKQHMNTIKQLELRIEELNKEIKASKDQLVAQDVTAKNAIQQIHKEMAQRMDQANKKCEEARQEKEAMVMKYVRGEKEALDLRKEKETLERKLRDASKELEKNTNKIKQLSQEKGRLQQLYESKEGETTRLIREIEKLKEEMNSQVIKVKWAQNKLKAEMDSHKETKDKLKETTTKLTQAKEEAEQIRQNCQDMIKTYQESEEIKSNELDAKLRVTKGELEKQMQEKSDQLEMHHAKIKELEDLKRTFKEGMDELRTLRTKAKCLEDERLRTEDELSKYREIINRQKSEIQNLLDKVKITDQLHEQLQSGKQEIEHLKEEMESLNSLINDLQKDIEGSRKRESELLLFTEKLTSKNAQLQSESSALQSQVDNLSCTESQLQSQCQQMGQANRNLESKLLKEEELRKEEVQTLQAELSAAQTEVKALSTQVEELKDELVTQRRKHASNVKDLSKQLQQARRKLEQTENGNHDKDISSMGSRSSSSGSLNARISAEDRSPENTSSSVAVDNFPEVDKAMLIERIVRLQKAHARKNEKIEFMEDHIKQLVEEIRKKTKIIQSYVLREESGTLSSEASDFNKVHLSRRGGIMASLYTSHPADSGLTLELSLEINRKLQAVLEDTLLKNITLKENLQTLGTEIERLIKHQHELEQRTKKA
UniProt Q8BX02: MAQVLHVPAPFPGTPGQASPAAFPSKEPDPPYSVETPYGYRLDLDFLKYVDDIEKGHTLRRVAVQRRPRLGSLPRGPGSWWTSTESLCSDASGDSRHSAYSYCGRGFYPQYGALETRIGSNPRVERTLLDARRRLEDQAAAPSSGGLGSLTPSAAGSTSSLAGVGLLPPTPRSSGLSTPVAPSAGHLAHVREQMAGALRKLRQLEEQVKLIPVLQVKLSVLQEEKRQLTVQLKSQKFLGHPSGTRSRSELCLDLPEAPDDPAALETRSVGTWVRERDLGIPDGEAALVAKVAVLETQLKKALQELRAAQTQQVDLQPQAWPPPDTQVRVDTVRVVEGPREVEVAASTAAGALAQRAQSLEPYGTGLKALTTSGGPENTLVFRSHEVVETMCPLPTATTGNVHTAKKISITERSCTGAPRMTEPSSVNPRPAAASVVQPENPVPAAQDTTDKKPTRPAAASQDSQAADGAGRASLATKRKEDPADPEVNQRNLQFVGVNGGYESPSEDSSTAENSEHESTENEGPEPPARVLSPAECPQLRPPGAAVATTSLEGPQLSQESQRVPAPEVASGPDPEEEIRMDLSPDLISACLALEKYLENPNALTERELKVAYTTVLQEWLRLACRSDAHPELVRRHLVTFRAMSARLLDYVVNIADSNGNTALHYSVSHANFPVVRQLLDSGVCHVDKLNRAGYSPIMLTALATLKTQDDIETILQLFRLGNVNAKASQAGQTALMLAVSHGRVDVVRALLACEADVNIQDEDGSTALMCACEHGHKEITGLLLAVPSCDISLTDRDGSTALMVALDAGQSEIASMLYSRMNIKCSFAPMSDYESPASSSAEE
UniProt Q8CEE7: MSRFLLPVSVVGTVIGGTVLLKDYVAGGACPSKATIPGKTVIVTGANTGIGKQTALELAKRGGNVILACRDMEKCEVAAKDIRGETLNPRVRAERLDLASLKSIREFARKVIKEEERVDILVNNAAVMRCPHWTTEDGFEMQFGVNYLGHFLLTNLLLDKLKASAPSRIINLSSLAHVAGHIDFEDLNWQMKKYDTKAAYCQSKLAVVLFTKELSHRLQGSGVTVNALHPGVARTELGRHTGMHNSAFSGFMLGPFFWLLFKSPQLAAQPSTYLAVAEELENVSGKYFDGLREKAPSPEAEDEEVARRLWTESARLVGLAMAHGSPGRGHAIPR
UniProt Q8BJ03: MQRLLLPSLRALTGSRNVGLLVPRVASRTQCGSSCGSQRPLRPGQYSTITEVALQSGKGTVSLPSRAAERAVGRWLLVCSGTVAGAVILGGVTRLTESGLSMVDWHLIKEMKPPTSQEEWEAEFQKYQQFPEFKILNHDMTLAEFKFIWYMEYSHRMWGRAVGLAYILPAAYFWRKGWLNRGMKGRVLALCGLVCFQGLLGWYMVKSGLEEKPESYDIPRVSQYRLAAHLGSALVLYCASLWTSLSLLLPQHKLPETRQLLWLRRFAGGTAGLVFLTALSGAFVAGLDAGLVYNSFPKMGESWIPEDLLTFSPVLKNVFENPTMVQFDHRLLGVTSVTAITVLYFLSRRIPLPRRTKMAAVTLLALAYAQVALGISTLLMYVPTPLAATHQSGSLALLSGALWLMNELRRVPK
UniProt Q8BIJ6: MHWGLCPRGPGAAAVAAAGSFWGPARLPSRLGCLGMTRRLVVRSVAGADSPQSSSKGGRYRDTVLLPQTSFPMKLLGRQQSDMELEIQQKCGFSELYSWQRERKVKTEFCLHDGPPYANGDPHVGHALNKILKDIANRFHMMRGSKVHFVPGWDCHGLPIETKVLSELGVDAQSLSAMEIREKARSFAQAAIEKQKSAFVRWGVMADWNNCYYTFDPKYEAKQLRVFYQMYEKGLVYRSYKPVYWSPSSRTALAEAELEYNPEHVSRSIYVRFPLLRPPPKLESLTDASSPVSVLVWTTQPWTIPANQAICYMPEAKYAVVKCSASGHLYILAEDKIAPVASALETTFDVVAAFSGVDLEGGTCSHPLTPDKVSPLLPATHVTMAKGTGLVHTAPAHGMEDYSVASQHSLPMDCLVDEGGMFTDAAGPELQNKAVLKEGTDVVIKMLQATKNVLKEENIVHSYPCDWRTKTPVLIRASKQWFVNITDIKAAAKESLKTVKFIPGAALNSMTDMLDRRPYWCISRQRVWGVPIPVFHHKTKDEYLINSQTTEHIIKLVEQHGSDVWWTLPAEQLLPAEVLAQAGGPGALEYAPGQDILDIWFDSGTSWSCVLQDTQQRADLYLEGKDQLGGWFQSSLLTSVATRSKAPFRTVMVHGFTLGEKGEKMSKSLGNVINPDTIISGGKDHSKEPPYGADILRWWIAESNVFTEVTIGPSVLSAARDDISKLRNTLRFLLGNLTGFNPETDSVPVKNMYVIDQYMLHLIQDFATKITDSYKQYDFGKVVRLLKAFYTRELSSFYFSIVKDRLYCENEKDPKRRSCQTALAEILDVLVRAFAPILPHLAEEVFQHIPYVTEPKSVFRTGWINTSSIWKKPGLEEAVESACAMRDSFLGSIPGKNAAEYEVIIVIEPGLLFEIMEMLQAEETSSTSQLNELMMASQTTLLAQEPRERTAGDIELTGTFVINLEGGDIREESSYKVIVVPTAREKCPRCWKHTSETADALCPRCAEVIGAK
UniProt Q8BWM0: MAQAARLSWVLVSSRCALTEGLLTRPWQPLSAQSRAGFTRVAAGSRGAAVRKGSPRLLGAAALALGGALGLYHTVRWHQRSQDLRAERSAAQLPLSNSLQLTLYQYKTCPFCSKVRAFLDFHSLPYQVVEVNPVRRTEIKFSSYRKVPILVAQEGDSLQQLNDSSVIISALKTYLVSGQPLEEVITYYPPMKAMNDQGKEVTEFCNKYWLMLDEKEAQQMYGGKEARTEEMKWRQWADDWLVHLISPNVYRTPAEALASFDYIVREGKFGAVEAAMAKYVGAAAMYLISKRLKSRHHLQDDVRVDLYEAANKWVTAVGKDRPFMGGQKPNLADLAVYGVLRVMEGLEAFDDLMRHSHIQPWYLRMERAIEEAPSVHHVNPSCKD

Some of the results follow. Most values lie at the level of the controls, where differences are scatter.

Compound in this test: CN[C@@H]1C[C@H]2O[C@@](C)([C@@H]1OC)n1c3ccccc3c3c4c(c5c6ccccc6n2c5c31)C(=O)NC4 [staurosporine]
Description: log2 fold change of pooled soluble protein (PISA), ligand vs vehicle (log2 ratio); higher = more thermally stabilized. To be noted: ligand concentration: 20 uM; assay format: PISA pool 52.9/55.5/58.6 C.
With UniProt Q8BPE4, the “log2 fold change of pooled soluble protein” value (shortened to “log2 fold change”) stood at 0.044.
With UniProt Q8BXJ9, the “log2 fold change” value was -0.095.
For the target UniProt Q8BH95, the “log2 fold change” value is 0.0512.
In the case of UniProt Q8C1B7 it was -0.0761.
For the target UniProt Q8C181, the “log2 fold change” value was found to be 0.0328.
Consider UniProt Q8C0Y0, for which the “log2 fold change” value was -0.0631.
For UniProt Q8BNI4, the “log2 fold change” value is -0.294.
As to UniProt Q8C0J2, the “log2 fold change” value turned out to be 0.194.
In the case of UniProt Q8BM75, the “log2 fold change” value was -0.325.
Turning to UniProt Q8CES0, the “log2 fold change” value is 0.107.
With UniProt Q8C9S4, the “log2 fold change” value was -0.0389.
In the case of UniProt Q8C0K5 it was -0.049; in that of UniProt Q8BX02, -0.245; in that of UniProt Q8BIG7, 0.219.
In the case of UniProt Q8BMD8 it was -0.0897.
Under UniProt Q8BJY1 stands -0.0596.
With UniProt Q8BH43, the “log2 fold change” value is -0.0565.
In the case of UniProt Q8BUY5 it was -0.0377; in that of UniProt Q8BMI0, -0.0683; in that of UniProt Q8BH60, 0.0185.
In the case of UniProt Q8CBW3 it was -0.0659; in that of UniProt Q8CFA2, 0.137; in that of UniProt Q8C1A5, 0.0627.
On to UniProt Q8C0Z1, for which the “log2 fold change” value was -0.00579.
As to UniProt Q8BWF0, the “log2 fold change” value stood at 0.0305.
Under UniProt Q8BZF8 stands -0.0585; under UniProt Q8BH57, -0.0966; under UniProt Q8CEE7, 0.0469.
Under UniProt Q8BU30 stands 0.0145; under UniProt Q8C650, -0.301; under UniProt Q8BJ03, 0.0569.
In the case of UniProt Q8CAK3 it was -0.131; in that of UniProt Q8BP47, 0.00621; in that of UniProt Q8BIJ6, -0.00491.
As to UniProt Q8BWM0, the “log2 fold change” value is -0.0469.
Under UniProt Q8CGA3 stands -0.151.
